We go through ten molecules from paper doi:10.1101/2020.09.06.285270.

Amino acid sequences for entries named in this document (tags omitted). Residues count along the entry.
UniProt P54764, residues 20-986: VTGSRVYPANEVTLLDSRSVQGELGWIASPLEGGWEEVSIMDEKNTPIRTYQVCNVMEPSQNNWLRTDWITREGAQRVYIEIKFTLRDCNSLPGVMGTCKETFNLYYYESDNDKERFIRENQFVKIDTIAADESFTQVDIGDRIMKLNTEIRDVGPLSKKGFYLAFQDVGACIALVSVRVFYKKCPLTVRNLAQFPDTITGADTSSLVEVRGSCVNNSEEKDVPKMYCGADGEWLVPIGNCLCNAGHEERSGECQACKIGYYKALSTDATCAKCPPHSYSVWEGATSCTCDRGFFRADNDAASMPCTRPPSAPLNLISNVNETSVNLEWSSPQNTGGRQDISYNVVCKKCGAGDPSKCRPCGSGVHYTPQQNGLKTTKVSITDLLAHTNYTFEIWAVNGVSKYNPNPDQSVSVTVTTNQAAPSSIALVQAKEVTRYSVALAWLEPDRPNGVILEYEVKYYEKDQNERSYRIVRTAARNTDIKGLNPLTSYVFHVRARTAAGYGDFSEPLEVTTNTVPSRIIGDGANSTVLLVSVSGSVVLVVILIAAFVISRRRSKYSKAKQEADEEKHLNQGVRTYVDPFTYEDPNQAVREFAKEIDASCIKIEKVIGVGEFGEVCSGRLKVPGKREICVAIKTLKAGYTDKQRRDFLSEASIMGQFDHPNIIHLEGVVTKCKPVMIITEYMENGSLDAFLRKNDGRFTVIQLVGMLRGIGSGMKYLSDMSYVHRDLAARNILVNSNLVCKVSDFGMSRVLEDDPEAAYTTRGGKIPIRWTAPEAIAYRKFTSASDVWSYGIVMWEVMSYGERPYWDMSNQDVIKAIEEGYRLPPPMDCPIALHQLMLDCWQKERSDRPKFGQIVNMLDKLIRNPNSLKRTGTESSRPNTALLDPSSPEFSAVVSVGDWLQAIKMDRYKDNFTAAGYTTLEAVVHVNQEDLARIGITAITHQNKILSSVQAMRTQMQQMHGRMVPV
UniProt P29323, residues 19-1055: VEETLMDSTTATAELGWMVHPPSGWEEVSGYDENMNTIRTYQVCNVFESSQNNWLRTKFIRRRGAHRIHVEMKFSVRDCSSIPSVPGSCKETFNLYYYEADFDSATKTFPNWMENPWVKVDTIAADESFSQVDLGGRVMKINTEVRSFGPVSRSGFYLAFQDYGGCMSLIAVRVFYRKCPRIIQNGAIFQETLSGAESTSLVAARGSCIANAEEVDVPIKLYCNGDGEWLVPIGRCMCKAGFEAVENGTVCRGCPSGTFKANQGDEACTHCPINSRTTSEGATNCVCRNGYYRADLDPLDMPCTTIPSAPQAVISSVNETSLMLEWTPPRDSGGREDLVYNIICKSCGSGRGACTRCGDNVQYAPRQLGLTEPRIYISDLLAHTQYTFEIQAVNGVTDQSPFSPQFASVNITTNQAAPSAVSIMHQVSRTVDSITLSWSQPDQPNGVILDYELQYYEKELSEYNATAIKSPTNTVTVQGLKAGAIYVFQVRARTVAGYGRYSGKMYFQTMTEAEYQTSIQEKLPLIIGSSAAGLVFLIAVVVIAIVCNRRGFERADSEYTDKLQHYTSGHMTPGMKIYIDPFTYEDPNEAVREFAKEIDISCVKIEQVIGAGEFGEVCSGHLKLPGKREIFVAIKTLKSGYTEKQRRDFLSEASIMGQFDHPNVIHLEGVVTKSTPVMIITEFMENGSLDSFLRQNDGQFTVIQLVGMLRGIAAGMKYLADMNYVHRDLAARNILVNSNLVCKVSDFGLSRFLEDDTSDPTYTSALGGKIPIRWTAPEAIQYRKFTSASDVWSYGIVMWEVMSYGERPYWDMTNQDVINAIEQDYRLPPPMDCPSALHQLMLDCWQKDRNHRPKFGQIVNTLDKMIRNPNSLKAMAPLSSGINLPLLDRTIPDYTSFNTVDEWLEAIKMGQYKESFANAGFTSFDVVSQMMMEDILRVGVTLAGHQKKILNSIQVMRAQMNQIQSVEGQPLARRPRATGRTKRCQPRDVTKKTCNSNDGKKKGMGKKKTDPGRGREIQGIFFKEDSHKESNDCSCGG
UniProt P54753, residues 34-998: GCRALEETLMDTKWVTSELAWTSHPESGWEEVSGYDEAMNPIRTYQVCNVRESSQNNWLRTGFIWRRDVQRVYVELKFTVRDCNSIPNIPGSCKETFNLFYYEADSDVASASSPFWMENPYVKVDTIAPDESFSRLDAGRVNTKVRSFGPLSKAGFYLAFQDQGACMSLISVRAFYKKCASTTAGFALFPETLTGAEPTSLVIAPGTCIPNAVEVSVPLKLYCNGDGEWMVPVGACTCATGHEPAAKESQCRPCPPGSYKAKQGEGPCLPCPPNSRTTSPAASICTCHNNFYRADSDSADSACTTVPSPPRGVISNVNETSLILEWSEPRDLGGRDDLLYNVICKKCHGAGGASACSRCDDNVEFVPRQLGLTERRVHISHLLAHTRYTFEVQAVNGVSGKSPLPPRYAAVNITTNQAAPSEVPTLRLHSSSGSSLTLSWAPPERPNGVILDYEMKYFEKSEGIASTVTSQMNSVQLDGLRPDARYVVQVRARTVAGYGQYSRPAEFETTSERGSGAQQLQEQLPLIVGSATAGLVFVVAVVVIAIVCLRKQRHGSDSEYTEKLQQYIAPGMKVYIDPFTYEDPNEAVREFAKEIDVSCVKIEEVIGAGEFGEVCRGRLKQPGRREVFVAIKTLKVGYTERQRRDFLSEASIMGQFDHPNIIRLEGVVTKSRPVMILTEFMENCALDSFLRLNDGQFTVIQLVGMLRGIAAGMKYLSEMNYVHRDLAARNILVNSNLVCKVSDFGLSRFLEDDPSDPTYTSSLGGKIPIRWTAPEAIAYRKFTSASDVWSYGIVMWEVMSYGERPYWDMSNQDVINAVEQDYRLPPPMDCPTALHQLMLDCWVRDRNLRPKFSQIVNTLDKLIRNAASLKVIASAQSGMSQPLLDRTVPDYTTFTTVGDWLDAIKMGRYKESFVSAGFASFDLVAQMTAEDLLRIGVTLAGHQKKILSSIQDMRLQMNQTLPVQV
UniProt P54760, residues 16-987: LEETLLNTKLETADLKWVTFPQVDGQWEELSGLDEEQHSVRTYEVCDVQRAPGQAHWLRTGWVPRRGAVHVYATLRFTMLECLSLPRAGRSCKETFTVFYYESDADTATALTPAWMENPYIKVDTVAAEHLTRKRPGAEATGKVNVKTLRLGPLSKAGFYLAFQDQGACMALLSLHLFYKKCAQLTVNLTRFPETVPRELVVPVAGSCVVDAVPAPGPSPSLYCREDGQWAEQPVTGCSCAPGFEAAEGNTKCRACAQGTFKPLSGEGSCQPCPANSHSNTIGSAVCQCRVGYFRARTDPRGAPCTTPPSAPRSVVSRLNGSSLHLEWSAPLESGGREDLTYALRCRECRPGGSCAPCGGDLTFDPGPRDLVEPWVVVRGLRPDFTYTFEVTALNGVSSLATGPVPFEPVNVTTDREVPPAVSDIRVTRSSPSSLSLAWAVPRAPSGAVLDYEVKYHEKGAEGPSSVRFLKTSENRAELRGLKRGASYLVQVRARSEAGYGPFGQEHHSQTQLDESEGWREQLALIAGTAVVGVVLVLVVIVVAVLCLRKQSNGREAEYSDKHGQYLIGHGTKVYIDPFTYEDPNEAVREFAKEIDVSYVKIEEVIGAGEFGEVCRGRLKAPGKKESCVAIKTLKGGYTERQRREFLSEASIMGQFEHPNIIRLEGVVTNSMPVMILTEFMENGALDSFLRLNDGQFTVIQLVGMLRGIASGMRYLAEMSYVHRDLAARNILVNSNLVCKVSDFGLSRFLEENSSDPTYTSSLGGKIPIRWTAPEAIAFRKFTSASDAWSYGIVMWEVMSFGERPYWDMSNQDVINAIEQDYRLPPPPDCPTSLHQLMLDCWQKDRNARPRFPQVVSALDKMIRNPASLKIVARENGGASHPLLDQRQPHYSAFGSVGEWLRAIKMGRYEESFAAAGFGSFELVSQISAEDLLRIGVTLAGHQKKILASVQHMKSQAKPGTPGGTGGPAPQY
UniProt Q14160: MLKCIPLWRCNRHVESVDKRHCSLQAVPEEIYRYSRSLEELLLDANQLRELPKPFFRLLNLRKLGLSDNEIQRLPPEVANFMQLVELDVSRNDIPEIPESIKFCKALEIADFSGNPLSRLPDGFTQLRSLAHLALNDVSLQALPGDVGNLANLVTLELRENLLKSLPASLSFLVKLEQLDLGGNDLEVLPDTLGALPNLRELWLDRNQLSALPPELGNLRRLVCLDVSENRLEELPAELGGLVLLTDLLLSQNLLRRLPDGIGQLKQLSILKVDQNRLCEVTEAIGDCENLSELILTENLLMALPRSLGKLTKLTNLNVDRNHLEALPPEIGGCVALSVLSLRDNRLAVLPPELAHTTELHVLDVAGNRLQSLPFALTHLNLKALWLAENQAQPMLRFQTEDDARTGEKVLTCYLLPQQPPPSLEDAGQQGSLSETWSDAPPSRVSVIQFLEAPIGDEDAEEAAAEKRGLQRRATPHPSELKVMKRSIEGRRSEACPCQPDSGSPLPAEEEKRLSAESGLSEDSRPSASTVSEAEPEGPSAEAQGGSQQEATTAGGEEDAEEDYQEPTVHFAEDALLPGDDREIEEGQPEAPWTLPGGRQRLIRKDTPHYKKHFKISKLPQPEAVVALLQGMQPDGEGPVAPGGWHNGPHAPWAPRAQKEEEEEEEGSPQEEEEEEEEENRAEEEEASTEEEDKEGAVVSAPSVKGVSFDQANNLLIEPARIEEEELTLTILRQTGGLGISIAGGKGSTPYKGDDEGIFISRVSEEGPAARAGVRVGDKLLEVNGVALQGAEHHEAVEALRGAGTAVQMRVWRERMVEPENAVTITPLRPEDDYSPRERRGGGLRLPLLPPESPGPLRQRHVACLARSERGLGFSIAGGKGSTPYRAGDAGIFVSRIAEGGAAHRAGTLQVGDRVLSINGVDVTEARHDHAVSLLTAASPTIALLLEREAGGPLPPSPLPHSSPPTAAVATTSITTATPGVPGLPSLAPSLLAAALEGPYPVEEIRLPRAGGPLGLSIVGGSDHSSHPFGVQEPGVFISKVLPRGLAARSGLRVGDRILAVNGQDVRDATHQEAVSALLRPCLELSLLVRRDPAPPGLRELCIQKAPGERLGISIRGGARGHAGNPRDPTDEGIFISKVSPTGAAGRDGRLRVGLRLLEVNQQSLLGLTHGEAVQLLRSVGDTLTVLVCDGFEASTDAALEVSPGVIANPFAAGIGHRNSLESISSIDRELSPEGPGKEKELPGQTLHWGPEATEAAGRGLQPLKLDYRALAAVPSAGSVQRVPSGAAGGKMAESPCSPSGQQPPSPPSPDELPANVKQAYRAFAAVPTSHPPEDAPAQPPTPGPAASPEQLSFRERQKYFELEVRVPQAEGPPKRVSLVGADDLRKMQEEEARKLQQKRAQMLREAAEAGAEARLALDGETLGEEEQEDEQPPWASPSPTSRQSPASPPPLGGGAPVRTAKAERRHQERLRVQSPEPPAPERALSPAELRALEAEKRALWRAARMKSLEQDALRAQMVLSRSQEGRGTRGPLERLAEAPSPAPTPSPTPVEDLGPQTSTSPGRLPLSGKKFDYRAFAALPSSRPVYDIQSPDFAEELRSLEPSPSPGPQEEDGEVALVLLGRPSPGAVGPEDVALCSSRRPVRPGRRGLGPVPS
UniProt Q7KZI7: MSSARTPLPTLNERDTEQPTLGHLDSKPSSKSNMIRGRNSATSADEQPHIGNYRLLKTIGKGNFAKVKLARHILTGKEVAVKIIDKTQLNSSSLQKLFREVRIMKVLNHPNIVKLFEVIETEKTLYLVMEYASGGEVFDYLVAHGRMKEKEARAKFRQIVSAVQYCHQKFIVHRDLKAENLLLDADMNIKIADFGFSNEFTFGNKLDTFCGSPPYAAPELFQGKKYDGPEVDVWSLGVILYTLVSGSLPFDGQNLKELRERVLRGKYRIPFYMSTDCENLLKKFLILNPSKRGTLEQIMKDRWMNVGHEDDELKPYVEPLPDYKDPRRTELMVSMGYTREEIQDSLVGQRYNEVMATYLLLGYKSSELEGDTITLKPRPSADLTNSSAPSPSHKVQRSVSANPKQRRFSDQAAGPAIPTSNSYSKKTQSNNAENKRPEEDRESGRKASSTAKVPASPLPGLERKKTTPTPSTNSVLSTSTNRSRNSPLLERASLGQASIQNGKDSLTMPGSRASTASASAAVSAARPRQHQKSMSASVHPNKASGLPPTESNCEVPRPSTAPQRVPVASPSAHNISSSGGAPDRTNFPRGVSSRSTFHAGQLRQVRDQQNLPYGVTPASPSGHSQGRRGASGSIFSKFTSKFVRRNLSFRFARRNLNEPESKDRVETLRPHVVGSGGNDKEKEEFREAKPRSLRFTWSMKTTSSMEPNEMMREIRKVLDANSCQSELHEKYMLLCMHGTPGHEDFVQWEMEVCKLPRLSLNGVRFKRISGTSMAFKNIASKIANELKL

These are yes or no findings as the source states them, for the method shown. Binding seen in cells or lysates may run through a third protein. A yes stands for co-enrichment or nearness to the bait. Other partners may have been found.

Assay [1] addresses GFP-PAR-3 (wild type) (rat) (UniProt Q9Z340). As to the kind of experiment: affinity purification with mass spectrometry.
In another assay the target is EPHA4-BirA*-FLAG (human) (UniProt P54764). As to the kind of experiment: proximity labelling.
Another assay deals with EPHB2-BirA*-FLAG (human) (UniProt P29323). The assay is described as follows: proximity labelling.
For another assay, the target named is EPHB3-BirA*-FLAG (human) (UniProt P54753). As to the kind of experiment: proximity labelling.
The next assay has as its target EPHB4-BirA*-FLAG (human) (UniProt P54760). As to the kind of experiment: proximity labelling.

In the case of AMOT (from UniProt Q4VCS5 1-1084), the binding result in assay [1] was “binds”.
Take SCRIB (from UniProt Q14160 1-1655): the binding entry in the assay with EPHA4-BirA*-FLAG (human), in the assay with EPHB2-BirA*-FLAG (human), with EPHB3-BirA*-FLAG (human) and in the assay with EPHB4-BirA*-FLAG (human) was “binds” in each case.
As to “PAR-3 (PARD3), endogenous (from UniProt Q8TEW0 1-1356)”, in the assay with EPHB4-BirA*-FLAG (human), the binding result is recorded as “binds”.
For the molecule “MARK2 (from UniProt Q7KZI7 1-788) (enzyme)”, the binding result in the assay with EPHA4-BirA*-FLAG (human), with EPHB2-BirA*-FLAG (human), with EPHB3-BirA*-FLAG (human) and with EPHB4-BirA*-FLAG (human) was “binds” in each case.
As to NCK2 (from UniProt O43639 1-380), in the assay with EPHA4-BirA*-FLAG (human), the binding result was “binds”.
Regarding EPB41L5 (from UniProt Q9HCM4 1-733), the binding entry in the assay with EPHA4-BirA*-FLAG (human), with EPHB2-BirA*-FLAG (human), with EPHB3-BirA*-FLAG (human) and with EPHB4-BirA*-FLAG (human) was “binds” each time.

B1: PKCι (PRKCI) (enzyme, UniProt P41743 1-596)
chain: MPTQRDSSTMSHTVAGGGSGDHSHQVRVKAYYRGDIMITHFEPSISFEGLCNEVRDMCSFDNEQLFTMKWIDEEGDPCTVSSQLELEEAFRLYELNKDSELLIHVFPCVPERPGMPCPGEDKSIYRRGARRWRKLYCANGHTFQAKRFNRRAHCAICTDRIWGLGRQGYKCINCKLLVHKKCHKLVTIECGRHSLPQEPVMPMDQSSMHSDHAQTVIPYNPSSHESLDQVGEEKEAMNTRESGKASSSLGLQDFDLLRVIGRGSYAKVLLVRLKKTDRIYAMKVVKKELVNDDEDIDWVQTEKHVFEQASNHPFLVGLHSCFQTESRLFFVIEYVNGGDLMFHMQRQRKLPEEHARFYSAEISLALNYLHERGIIYRDLKLDNVLLDSEGHIKLTDYGMCKEGLRPGDTTSTFCGTPNYIAPEILRGEDYGFSVDWWALGVLMFEMMAGRSPFDIVGSSDNPDQNTEDYLFQVILEKQIRIPRSLSVKAASVLKSFLNKDPKERLGCHPQTGFADIQGHPFFRNVDWDMMEQKQVVPPFKPNISGEFGLDNFDSQFTNEPVQLTPDDDDIVRKIDQSEFEGFEYINPLLMSAEECV
Take B1: the binding entry with EPHB4-BirA*-FLAG (human) is “binds”.

B2: VANGL1 (protein, UniProt Q8TAA9 1-524)
chain: MDTESTYSGYSYYSSHSKKSHRQGERTRERHKSPRNKDGRGSEKSVTIQPPTGEPLLGNDSTRTEEVQDDNWGETTTAITGTSEHSISQEDIARISKDMEDSVGLDCKRYLGLTVASFLGLLVFLTPIAFILLPPILWRDELEPCGTICEGLFISMAFKLLILLIGTWALFFRKRRADMPRVFVFRALLLVLIFLFVVSYWLFYGVRILDSRDRNYQGIVQYAVSLVDALLFIHYLAIVLLELRQLQPMFTLQVVRSTDGESRFYSLGHLSIQRAALVVLENYYKDFTIYNPNLLTASKFRAAKHMAGLKVYNVDGPSNNATGQSRAMIAAAARRRDSSHNELYYEEAEHERRVKKRKARLVVAVEEAFIHIQRLQAEEQQKAPGEVMDPREAAQAIFPSMARALQKYLRITRQQNYHSMESILQHLAFCITNGMTPKAFLERYLSAGPTLQYDKDRWLSTQWRLVSDEAVTNGLRDGIVFVLKCLDFSLVVNVKKIPFIILSEEFIDPKSHKFVLRLQSETSV
For B2, the binding result in the assay with EPHA4-BirA*-FLAG (human), with EPHB2-BirA*-FLAG (human), with EPHB3-BirA*-FLAG (human) and with EPHB4-BirA*-FLAG (human) was “binds” throughout.

B3: PAR-6B (protein, UniProt Q9BYG5 1-372)
chain: MNRSHRHGAGSGCLGTMEVKSKFGAEFRRFSLERSKPGKFEEFYGLLQHVHKIPNVDVLVGYADIHGDLLPINNDDNYHKAVSTANPLLRIFIQKKEEADYSAFGTDTLIKKKNVLTNVLRPDNHRKKPHIVISMPQDFRPVSSIIDVDILPETHRRVRLYKYGTEKPLGFYIRDGSSVRVTPHGLEKVPGIFISRLVPGGLAQSTGLLAVNDEVLEVNGIEVSGKSLDQVTDMMIANSRNLIITVRPANQRNNVVRNSRTSGSSGQSTDNSLLGYPQQIEPSFEPEDEDSEEDDIIIEDNGVPQQIPKAVPNTESLESLTQIELSFESGQNGFIPSNEVSLAAIASSSNTEFETHAPDQKLLEEDGTIITL
For B3, the binding entry (in assay [1]; with EPHB4-BirA*-FLAG (human)) was “binds” each time.

B4: LLGL1 (protein, UniProt Q15334 1-1064)
chain: MMKFRFRRQGADPQREKLKQELFAFNKTVEHGFPNQPSALAFDPELRIMAIGTRSGAVKIYGAPGVEFTGLHRDAATVTQMHFLTGQGRLLSLLDDSSLHLWEIVHHNGCAHLEEALSFQLPSRPGFDGASAPLSLTRVTVVLLVAASDIAALGTEGSSVFFLDVTTLTLLEGQTLAPGEVLRSVPDDYRCGKALGPVESLQGHLRDPTKILIGYSRGLLVIWNQASQCVDHIFLGNQQLESLCWGRDSSTVVSSHSDGSYAVWSVDAGSFPTLQPTVATTPYGPFPCKAINKILWRNCESGGHFIIFSGGMPRASYGDRHCVSVLRAETLVTLDFTSRIIDFFTVHSTRPEDEFDDPQALAVLLEEELVVLDLQTPGWPAVPAPYLAPLHSSAITCSAHVASVPAKLWARIVSAGEQQSPQPVSSALSWPITGGRNLAQEPSQRGLLLTGHEDGTVRFWDASGVALRPLYKLSTAGLFQTDCEHADSLAQAAEDDWPPFRKVGCFDPYSDDPRLGVQKVALCKYTAQMVVAGTAGQVLVLELSDVPVEQAVSVAIIDLLQDREGFTWKGHERLSPRTGPLPWPAGFQPRVLVQCLPPAAVTAVTLHTEWSLVAFGTSHGFGLFDYQRKSPVLARCTLHPNDSLAMEGPLSRVKSLKKSLRQSFRRIRKSRVSGKKRAANASSKLQEANAQLAEQACPHDVEMTPVQRRIEPRSADDSLSGVVRCLYFADTFLRDGAHHGPTMWAGTNSGSVFAYALEVPAAAVGGEKRPEQAVEAVLGKEVQLMHRAPVVAIAVLDGRGRPLPEPYEASRDLAQAPDMQGGHAVLIASEEQFKVFTLPKVSAKTKFKLTAHEGCRVRKVALATFASVACEDYAETCLACLTNLGDVHVFSVPGLRPQVHYSCIRKEDISGIASCVFTRHGQGFYLISPSEFERFSLSARNITEPLCSLDINWPRDATQASYRIRESPKLSQANGTPSILLAPQSLDGSPDPAHSMGPDTPEPPEAALSPMSIDSATSADTTLDTTGDVTVEDVKDFLGSSEESEKNLRNLAEDEAHACAILIK
Consider B4, for which the binding entry with EPHA4-BirA*-FLAG (human), in the assay with EPHB2-BirA*-FLAG (human), with EPHB3-BirA*-FLAG (human) and with EPHB4-BirA*-FLAG (human) was “binds” in each case.
